Measurements taken from the supplement of paper PMC4635364.
Counter-ions that a name gives are not always drawn. The list shows a part of the results. This data set is noisy: repeats of one test often differ as much as different tests do.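 Cells: ReNCell VM human fetal ventral-midbrain neural progenitors, differentiated mitogen-free. Blinded raters compared doublecortin-stained (early neurons) or tyrosine hydroxylase-stained (dopaminergic neurons) images with untreated wells, where 0 means no change. After repeats and both raters were averaged, compounds scoring 2 or above became hits for retesting.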

test system: ReNCell VM; experiment: dopaminergic neuron differentiation score (TH+ cell fraction vs untreated, manual image score) (score (0 to 3)); higher = more TH+ dopaminergic neuron differentiation; conditions: library: Spectrum; 2 uM; 4 weeks; BDNF 10 ng/ml + GDNF 10 ng/ml

Dopaminergic neuron differentiation score, inactive:
OCC(O)C(O)C(O)CO (stereo not given) 0, C[C@H]1[C@H](C)CC[C@]2(C(=O)O)CC[C@]3(C)C(=CC[C@@H]4[C@@]5(C)C[C@@H](O)[C@H](O)[C@@](C)(CO)[C@@H]5CC[C@]43C)[C@H]12 0, COc1cc(-c2coc3cc(OCc4ccccc4)c(OC)c(O)c3c2=O)cc(OCc2ccccc2)c1OC 0, CCN1CCCC(OC(=O)C(c2ccccc2)c2ccccc2)C1 (stereo not given) 0, C=CC(C1=CC(=O)C(OC)=CC1=O)c1ccccc1 (stereo not given) 0, COc1ccc2c(c1)OC[C@@H](Cc1ccc(OC)c(OC)c1)[C@H]2O 0, C[C@]1(OC(=O)/C=C/c2ccccc2)C[C@@H](O)[C@]2(O)C=CO[C@@H](O[C@@H]3O[C@H](CO)[C@@H](O)[C@H](O)[C@H]3O)[C@@H]21 0, CC(C)NCC(O)COc1ccc(COCCOC(C)C)cc1 (stereo not given) 0, CCOc1ccc2ccccc2c1C(=O)N[C@@H]1C(=O)N2[C@@H]1SC(C)(C)[C@@H]2C(=O)O 0, Cn1c(=O)[nH]c2ncn(C)c2c1=O 0, COC(=O)CC[C@@H](C)[C@H]1CC[C@H]2[C@@H]3CC[C@@H]4C[C@H](O)CC[C@]4(C)[C@H]3C[C@H](O)[C@]12C 0, CN(C)CCC[C@@]1(c2ccc(F)cc2)OCc2cc(C#N)ccc21 1, CC(C)(C)CC(C)(C)c1ccc(OCCOCC[N+](C)(C)Cc2ccccc2)cc1 0, NS(=O)(=O)c1cc2c(cc1Cl)NCNS2(=O)=O 0, NCCCNCCCCNCCCN 0

same assay, conditions: library: Tocriscreen; 2 uM; 4 weeks; BDNF 10 ng/ml + GDNF 10 ng/ml

Dopaminergic neuron differentiation score, inactive:
NCCNC(=O)c1ccc(Cl)cn1 [Lazabemide hydrochloride] 0, NC(N)=NC(N)=Nc1cccc(Cl)c1 [m-Chlorophenylbiguanide hydrochloride] 0, O=C(COc1cccc2c(=O)[nH]ccc12)c1ccccc1 1, Oc1ccc(Nc2nc(-c3ccc(Cl)cc3)cs2)cc1 0, Oc1cc2c(c(Cl)c1O)CCNCC2c1ccccc1 (stereo not given) 0
